# Assay results published in patent publication US8455196B2, “Biomarker for identifying subgroup of early-stage lung adenocarcinoma patients” (priority 2011, dated 2013).
# At least one compound was matched to its structure with a doubt left.
# Key:
# phospho-AKT (Ser^473) = experiment: Immunoblot of phospho-AKT in TOPK-transfected CL1-0 cells treated with inhibitor; assay type: cell-based, human; conditions: LY294002 10 μM
# CL1-0 cells = experiment: Transwell migration of TOPK-overexpressing CL1-0 cells with pharmacological inhibitors; assay type: cell-based, human; conditions: CL1-0 cells transfected with pCMV2-Flag-TOPK; inhibitor 10 μM, 2 hrs
compound,measurement,setting,value
O=c1cc(N2CCOCC2)oc2c(-c3ccccc3)cccc12 [LY294002],phosphorylation of AKT,phospho-AKT (Ser^473),significantly inhibited
same,increase in cell migration stimulated by ectopic expression of TOPK,CL1-0 cells,strongly decreased
